Patent US20080269279A1, “Substituted furo[2,3-B] pyridine derivatives as cannabinoid-1 receptor modulators” (priority 2007, published 2008)
Some entries share one result that the patent states for a list of compounds.

By UniProt entry, the sequences of proteins in these tests, tags left out.
UniProt P21554, whole entry: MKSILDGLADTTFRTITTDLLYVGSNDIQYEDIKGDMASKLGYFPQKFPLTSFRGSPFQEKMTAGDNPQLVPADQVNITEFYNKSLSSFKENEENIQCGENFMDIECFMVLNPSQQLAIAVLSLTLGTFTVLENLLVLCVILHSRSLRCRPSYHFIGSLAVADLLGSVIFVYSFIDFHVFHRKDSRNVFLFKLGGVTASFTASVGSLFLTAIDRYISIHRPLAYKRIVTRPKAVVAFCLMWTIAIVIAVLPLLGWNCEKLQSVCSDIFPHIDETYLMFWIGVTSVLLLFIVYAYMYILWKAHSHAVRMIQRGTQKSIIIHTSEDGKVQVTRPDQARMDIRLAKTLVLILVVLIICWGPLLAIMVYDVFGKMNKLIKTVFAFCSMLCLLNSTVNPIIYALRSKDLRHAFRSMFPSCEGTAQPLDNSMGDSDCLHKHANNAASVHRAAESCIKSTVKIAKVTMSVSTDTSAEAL

target: T1, recombinant human CB1 receptor (Homo sapiens, UniProt P21554); test: Cannabinoid Receptor-1 (CB1) Binding Assay ([3H]CP-55940 displacement)
T1 construct: expressed in transfected cells
Procedure: Binding affinity determination is based on recombinant human CB1 receptor expressed in Chinese Hamster Ovary (CHO) cells (Felder et al, Mol. Pharmacol. 48: 443-450, 1995). Total assay volume is 250 μl (240 μl CB1 receptor membrane solution plus 5 μl test compound solution plus 5 μl [3H]CP-55940 solution). Final concentration of [3H]CP-55940 is 0.6 nM. Binding buffer contains 50 mM Tris-HCl, pH 7.4, 2.5 mM EDTA, 5 mM MgCl2, 0.5 mg/mL fatty acid free bovine serum albumin and protease inhibitors (Cat#P8340, from Sigma). To initiate the binding reaction, 5 μl of radioligand solution is added, the mixture is incubated with gentle shaking on a shaker for 1.5 h at 30° C. The binding is terminated by using 96-well harvester and filtering through GF/C filter presoaked in 0.05% polyethylenimine. The bound radiolabel is quantitated using scintillation counter. Apparent binding affinities for various compounds are calculated from IC50 values (DeBlasi et al., Trends Pharmacol Sci 10: 227-229, 1989).

IC50, < 1 µM:
CNC(=O)c1c(C(=O)C(C)(C)C)oc2nc(-c3ccc(-c4cc[nH]n4)cc3Cl)c(-c3ccc(Cl)cc3)cc12 [Example 29, 5-(4-Chlorophenyl)-6-[2-chloro-4-(1H-pyrazol-3-yl)phenyl]-2-(2,2-dimethylpropanoyl)-N-methylfuro[2,3-b]pyridine-3-carboxamide]
CCC(=O)c1oc2nc(-c3ccc(-c4cn[nH]c4)cc3Cl)c(-c3ccc(Cl)cc3)cc2c1NC(C)=O [Example 5, N-{5-(4-Chlorophenyl)-6-[2-chloro-4-(1H-pyrazol-4-yl)phenyl]-2-propionylfuro[2,3-b]pyridin-3-yl}acetamide]
CC(C)(C)C(=O)c1oc2nc(-c3ccc(-c4cc[nH]n4)cc3Cl)c(-c3ccc(Cl)cc3)cc2c1C(N)=O [Example 20, 5-(4-Chlorophenyl)-6-[2-chloro-4-(1H-pyrazol-3-yl)phenyl]-2-(2,2-dimethylpropanoyl)furo[2,3-b]pyridine-3-carboxamide]
CC(C)C(=O)c1oc2nc(-c3ccc(-c4cc[nH]n4)cc3Cl)c(-c3ccc(Cl)cc3)cc2c1N [Example 22, 1-{3-Amino-5-(4-chlorophenyl)-6-[2-chloro-4-(1H-pyrazol-3-yl)phenyl]furo-[2,3-b]pyridin-2-yl}-2-methylpropan-1-one]
Cc1n[nH]cc1-c1ccc(-c2nc3oc(C(=O)C(C)(C)C)c(C)c3cc2-c2ccc(Cl)cc2)c(Cl)c1 [Example 36, 1-[6-[2-Chloro-4-(3-methyl-1H-pyrazol-4-yl)phenyl]-5-(4-chlorophenyl)-3-methylfuro[2,3-b]pyridin-2-yl]-2,2-dimethylpropan-1-one]
CC(=O)Nc1c(C(=O)C(C)C)oc2nc(-c3ccc(-c4c[nH]nc4C)cc3Cl)c(-c3ccc(Cl)cc3)cc12 [Example 33, N-[6-[2-Chloro-4-(3-methyl-1H-pyrazol-4-yl)phenyl]-5-(4-chlorophenyl)-2-isobutyrylfuro[2,3-b]pyridin-3-yl]acetamide]
Cc1c(C(=O)C(C)(C)O)oc2nc(-c3ccc(-c4cc[nH]n4)cc3Cl)c(-c3ccc(Cl)cc3)cc12 [Example 23, 1-{5-(4-Chlorophenyl)-6-[2-chloro-4-(1H-pyrazol-3-yl)phenyl]-3-methylfuro[2,3-b]pyridin-2-yl}-2-hydroxy-2-methylpropan-1-one]
CCC(=O)c1oc2nc(-c3ccc(-c4cc[nH]n4)cc3Cl)c(-c3ccc(Cl)cc3)cc2c1C [Example 26, 1-{5-(4-Chlorophenyl)-6-[2-chloro-4-(1H-pyrazol-3-yl)phenyl]-3-methylfuro[2,3-b]pyridin-2-yl}propan-1-one]
CC(=O)Nc1c(C(=O)C(C)(C)C)oc2nc(-c3ccc(-c4cn[nH]c4)cc3Cl)c(-c3ccc(Cl)cc3)cc12 [Example 4, N-[5-(4-Chlorophenyl)-6-[2-chloro-4-(1H-pyrazol-4-yl)phenyl]-2-(2,2-dimethylpropanoyl)furo[2,3-b]pyridin-3-yl]acetamide]
CCC(=O)c1oc2nc(-c3ccc(-c4cn[nH]c4)cc3Cl)c(-c3ccc(Cl)cc3)cc2c1NC(=O)C(C)(C)O [Example 13, N-{5-(4-Chlorophenyl)-6-[2-chloro-4-(1H-pyrazol-4-yl)phenyl]-2-propionylfuro[2,3-b]pyridin-3-yl}-2-hydroxy-2-methylpropanamide]
Cc1c(C(=O)CC(C)C)oc2nc(-c3ccc(-c4cn[nH]c4)cc3Cl)c(-c3ccc(Cl)cc3)cc12 [Example 12, 1-{5-(4-Chlorophenyl)-6-[2-chloro-4-(1H-pyrazol-4-yl)phenyl]-3-methylfuro[2,3-b]pyridin-2-yl}-3-methylbutan-1-one]
CC(=O)Nc1c(C(=O)C(C)(C)O)oc2nc(-c3ccc(-c4cc[nH]n4)cc3Cl)c(-c3ccc(Cl)cc3)cc12 [Example 18, N-[5-(4-Chlorophenyl)-6-[2-chloro-4-(1H-pyrazol-3-yl)phenyl]-2-(2-hydroxy-2-methylpropanoyl)furo[2,3-b]pyridin-3-yl]acetamide]
CC(C)C(=O)Nc1c(C(=O)C(C)(C)C)oc2nc(-c3ccc(-c4cn[nH]c4)cc3Cl)c(-c3ccc(Cl)cc3)cc12 [Example 6, N-[5-(4-Chlorophenyl)-6-[2-chloro-4-(1H-pyrazol-4-yl)phenyl]-2-(2,2-dimethylpropanoyl)furo[2,3-b]pyridin-3-yl]-2-methylpropanamide]
CC(=O)Nc1c(C(=O)C(C)(C)O)oc2nc(-c3ccc(-c4c[nH]nc4C)cc3Cl)c(-c3ccc(Cl)cc3)cc12 [Example 41, N-[6-[2-Chloro-4-(3-methyl-1H-pyrazol-4-yl)phenyl]-5-(4-chlorophenyl)-2-(2-hydroxy-2-methylpropanoyl)furo[2,3-b]pyridin-3-yl]acetamide]
CC(=O)n1cc(-c2ccc(-c3nc4oc(C(=O)C(C)(C)O)c(N)c4cc3-c3ccc(Cl)cc3)c(Cl)c2)cn1 [Example 30, 1-[6-[4-(1-Acetyl-1H-pirazol-4-yl)-2-chlorophenyl]-3-amino-5-(4-chlorophenyl)furo[2,3-b]pyridin-2-yl]-2-hydroxy-2-methylpropan-1-one]
